Several values for one entry are separate records, joined by “and”; a condition that tells them apart may be missing. Equal values may be shown once. The shares of active, inactive and inconclusive entries below differ from those in the screen. Potencies of inconclusive entries are doubtful fits and often do not repeat. Activity calls are given as the source filed them. Calls follow the shape of the full dose curve.
The molecules below were run against Beta-2 adrenergic receptor (Homo sapiens) (UniProt P07550) (assay: Adrenergic beta2 receptor (ADRB2) small molecule agonists, cell-based qHTS assay (AID 1963593)). Details: CHO-ADRB2 cells, cAMP HTRF, 30 min; activation: at 92.4 µM (top of the series) unless noted.
Description: National Center for Advancing Translational Sciences [NCATS]
Division of Preclinical Innovation [DPI]
U.S. Environmental Protection Agency [EPA]
National Institutes of Environmental Health Sciences [NIEHS]
National Toxicology Program [NTP]
U.S. Food and Drug Administration [FDA]
Beta adrenergic receptors (Beta-ARs) belong to the G-protein coupled receptor (GPCR) superfamily, includes three subtypes - beta1, beta2, and beta3. Beta1-AR is the predominant receptor subtype expressed in the heart, and beta2-AR is expressed in the kidney, lung, blood vessel and in the heart, and beta3 is found in the adipocytes. Beta1 and 2 ARs couple to Gs protein and elevate cyclic adenosine mono phosphate (cAMP), which activates protein kinase A and leads to the downstream signaling responsible for the physiological actions. Beta-AR agonists or antagonists are the most prescribed therapeutic agents for heart failure and asthma, and these were one of the first target receptors for the rational drug design. Tox21 10K compound library was screened using the cAMP-Gs dynamic assay (Cisbio Bioassays, Shelton, CT) to identify agonists/antagonists of the Gs-coupled human adrenergic, beta2 receptor (ADRB2) in the CHO-ADRB2 cell line (Codex BioSolutions, Inc. Gaithersburg, MD), which stably over-expresses ADRB2. The principle of cAMP-Gs dynamic assay is based on HTRF technology, which facilitates the fluorescence resonance energy transfer (FRET) between donor Europium cryptate and acceptor d2-labeled cAMP. The cAMP generated within cells competes with the red acceptor, d2-labled cAMP, for binding to the monoclonal anti-cAMP-cryptate (Europium donor). An increase in intracellular cAMP leads to the disruption of FRET signal, and the signal is inversely proportional to the cAMP concentration. Isoproterenol HCl (Sigma-Aldrich, St. Louis, MO) was used as a positive control in the screening.
Tox21 Assay Protocol Summary:
CHO-ADRB2 cells were dispensed at 1,000/well in 4uL assay medium into white/solid 1536-well plates (Greiner Bio-One North America Inc., Monroe, NC) using a Multidrop Combi dispenser (ThermoFisher Scientific, Waltham, MA). The assay plates were incubated at 37C and 5% CO2 for an overnight (18-20hr). Then positive control and test compounds dissolved in DMSO were transferred to the assay plates at 23nL using a Pintool station (Wako, San Diego, CA). Following the compound and positive control transfer, 1uL stimulation mix containing 100uM IBMX and 25uM Ro-20-1724 was added to each well of the assay plates using BioRAPTR Flying Reagent Dispenser (FRD, Beckman Coulter, Brea, CA). The assay plates were incubated at room temperature for 0.5hr. Then 2.5ul each d2-labled cAMP and anti-cAMP-cryptate solutions were added separately to each well of the assay plates using an FRD and the assay plates were incubated at room temperature for 1hr.
For `O=C(CCCl)NCCc1ccccc1`, the Potency was inconclusive: 1500 nM [rising, partial curve, poor fit].
With `C#CCOC(=O)[C@@H](C)Oc1ccc(Oc2ncc(Cl)cc2F)cc1` the activation was inconclusive: -10.4%.
`CCCCC(CC)COP(=O)(O)O` (stereo not given) was tested, and the activation was inconclusive: 17.7%.
In the case of `CC(C)(C)OC(=O)N1C[C@@H](F)C[C@H]1C(=O)O`, the Potency is reported as inconclusive: 501 nM [inhibitor, partial curve, poor fit].
With `OC1CCCCC1` the activation was inconclusive: 4.67%.
For `COC(=O)CCCCC(=O)OC`, the activation was inconclusive: -47.7% and inconclusive: 3.68%.
With `CN1C(=O)CC(c2ccccc2)C1=O` (stereo not given) the activation was inconclusive: -1.35% [at 42.5 µM].
`Nc1ccc(F)cc1F` was tested, and the “activation” value was inactive: -0.187%.
With `c1ccc2cnccc2c1` the activation was inconclusive: 3.4%.
`C[C@@H]1CC[C@H]2C(C)(C)[C@H]3C[C@@]12CC[C@@]3(C)O` was tested, and the activation was inconclusive: -10.8%.
With `Cc1cccc(C)c1NC(=O)CN1CCN(CCCC(c2ccc(F)cc2)c2ccc(F)cc2)CC1` the “activation” value was inactive: -11% [at 42.5 µM].
`CC(C)(C)c1cc(CCC(=O)OCCSCCOC(=O)CCc2cc(C(C)(C)C)c(O)c(C(C)(C)C)c2)cc(C(C)(C)C)c1O` was tested, and the activation was inconclusive: -12.7% [at 42.5 µM].
`C=CCN1C[C@H](C(=O)N(CCCN(C)C)C(=O)NCC)C[C@@H]2c3cccc4[nH]cc(c34)C[C@H]21` was tested, and the “activation” value was inactive: -9.91% [at 42.5 µM].
For `CC(C)CC=O`, the activation was inconclusive: -1.66%.
In the case of `CC(CO)CO`, the “activation” value is reported as inactive: -2.49%.
In the case of `CC(C)(C)C1CCC(CC2=C(O)c3ccccc3C(=O)C2=O)CC1` (stereo not given), the activation is reported as inconclusive: -9.68% [at 42.5 µM].
`NC(=O)OCC(COC(N)=O)c1ccccc1` was tested, and the activation was inconclusive: 9.48% [at 42.5 µM].
With `CC(C)CCCCCCOC(=O)c1ccc(C(=O)OCCCCCCC(C)C)c(C(=O)OCCCCCCC(C)C)c1` the activation was inconclusive: -37%.
`CCCCCCCCCCCCOC(=O)c1cc(O)c(O)c(O)c1` was tested, and the activation was inconclusive: -5.44%.
`CC1CCCO1` (stereo not given) was tested, and the Potency was inconclusive: 212 nM [inhibitor, partial curve, poor fit].
For `C=Cc1ccc(C=C)cc1`, the activation was inconclusive: -16.8%.
In the case of `CCCCCC=CCC=CCCCCCCCC(=O)OCC`, the activation is reported as inconclusive: 1.36% [at 42.5 µM].
`NC(=O)n1c(O)c(C(=O)c2cccs2)c2cc(Cl)ccc21` was tested, and the activation was inconclusive: -34.4% [at 42.5 µM].
With `O=C(c1ccccc1)C(O)c1ccccc1` (stereo not given) the activation was inconclusive: -30%.
In the case of `Cc1cccc(C)c1NC(=O)c1ccccc1C(=O)O`, the activation is reported as inconclusive: -2.23% [at 42.5 µM].
With `O=C(O)c1ccc(-n2nc(-c3ccccc3O)nc2-c2ccccc2O)cc1` the activation was inconclusive: 15.8% [at 42.5 µM].
For `Cc1ccccc1S(=O)(=O)O`, the “activation” value was inactive: 15.8%.
In the case of `O=c1c(-c2ccc(O)cc2)coc2cc(O)cc(O)c12`, the Potency is reported as inconclusive: 30.1 µM [inhibitor, partial curve] and inconclusive: 5.45 µM [inhibitor, partial curve, poor fit] and inconclusive: 33.5 µM [inhibitor, single point].
For `C1CN(SSN2CCOCC2)CCO1`, the Potency was inconclusive: 605 nM [inhibitor, single point] and the activation was inconclusive: 6.79%.
`ON=C1CCCCC1` was tested, and the Potency was inconclusive: 1090 nM [inhibitor].
In the case of `C/C(=C\c1ccc(C(=O)O)cc1)c1ccc2c(c1)C(C)(C)CCC2(C)C`, the activation is reported as inconclusive: -3.34% [at 42.5 µM].
With `CCCCN(CCC(=O)OCC)C(C)=O` the “activation” value was inactive: -4.69%.
In the case of `C=C(C)C(=O)OCC(C)(C)COC(=O)C(=C)C`, the activation is reported as inconclusive: 29.2%.
In the case of `CC(C)CCOC(=O)c1ccc(N(C)C)cc1`, the activation is reported as inconclusive: 15.3% [at 42.5 µM].
`CC(=O)Oc1ccc2c(c1)CC[C@@H]1[C@@H]2CC[C@]2(C)[C@@H](O)CC[C@@H]12` was tested, and the Potency was inconclusive: 2.1 nM [falling, full curve, poor fit].
For `O=CN1CCCCC1`, the activation was inconclusive: -4.42%.

Same assay, conditions: CHO-ADRB2 cells, cAMP HTRF, 30 min; at 92.4 µM (top of the series)
For `OC1CCCCC1`, the activation was inactive: 13%.
With `NC(=O)OCC(COC(N)=O)c1ccccc1` the activation was inactive: 9.5%.
For `CCCCCCCCCCCCOC(=O)c1cc(O)c(O)c(O)c1`, the activation was inactive: -41.2%.

Reference: PubChem BioAssay (Tox21)
% is scaled to controls: 0 for no effect and ±100 for the full control effect; potency is read from the fitted curve at half-maximal effect.
